For part of these data: Where a protein sequence is shown, tags need not be part of it. For part of these data: The exact form of at least one protein or probe is not confirmed.
Assays:
Assay in all cases: filter binding
[1] = target: T1, wheat germ agglutinin (WGA) (Triticum vulgare) (UniProt P10968); details: purified native protein
T1 sequence (looked up, limits assumed): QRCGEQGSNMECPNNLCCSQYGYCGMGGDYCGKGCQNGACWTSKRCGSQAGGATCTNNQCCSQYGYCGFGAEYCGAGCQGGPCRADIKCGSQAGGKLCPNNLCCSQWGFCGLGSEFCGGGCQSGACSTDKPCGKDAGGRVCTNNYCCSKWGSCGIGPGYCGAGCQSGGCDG

The chains behind the UniProt entries cited, without tags or fusion partners. Residues count along the entry.
UniProt P20273, 20-687: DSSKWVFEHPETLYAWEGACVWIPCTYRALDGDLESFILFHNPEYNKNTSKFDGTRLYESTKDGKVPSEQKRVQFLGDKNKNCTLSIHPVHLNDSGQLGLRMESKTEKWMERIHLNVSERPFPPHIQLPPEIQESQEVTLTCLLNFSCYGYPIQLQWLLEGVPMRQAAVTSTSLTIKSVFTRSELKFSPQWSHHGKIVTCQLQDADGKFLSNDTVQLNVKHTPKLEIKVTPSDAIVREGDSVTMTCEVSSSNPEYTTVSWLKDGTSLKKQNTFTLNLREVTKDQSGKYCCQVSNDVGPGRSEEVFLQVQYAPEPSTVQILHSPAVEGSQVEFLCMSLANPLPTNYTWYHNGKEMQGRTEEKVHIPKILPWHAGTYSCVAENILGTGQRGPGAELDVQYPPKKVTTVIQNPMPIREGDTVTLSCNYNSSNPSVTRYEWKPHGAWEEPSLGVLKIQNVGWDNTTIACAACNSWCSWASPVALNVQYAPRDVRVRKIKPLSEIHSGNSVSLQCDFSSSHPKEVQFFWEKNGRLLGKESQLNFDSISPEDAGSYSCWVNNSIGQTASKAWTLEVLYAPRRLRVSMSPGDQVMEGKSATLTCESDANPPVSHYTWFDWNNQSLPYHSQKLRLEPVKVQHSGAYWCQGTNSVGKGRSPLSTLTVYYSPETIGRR

CD22beta (CD22beta-Rg) = CD22beta (CD22beta-Rg) (UniProt P20273); details: purified recombinant protein, protein details: fused to human IgG1 Fc (provided by A. Varki)
[2] = target: T2, Ulex europaeus lectin UEA-II (Ulex europaeus) (UniProt P22973); details: 2'-NH2 all C and U; <5% bound at 1 uM protein; purified native protein; protein details: E Y Laboratories; label: 32P
T2 sequence (looked up, limits assumed): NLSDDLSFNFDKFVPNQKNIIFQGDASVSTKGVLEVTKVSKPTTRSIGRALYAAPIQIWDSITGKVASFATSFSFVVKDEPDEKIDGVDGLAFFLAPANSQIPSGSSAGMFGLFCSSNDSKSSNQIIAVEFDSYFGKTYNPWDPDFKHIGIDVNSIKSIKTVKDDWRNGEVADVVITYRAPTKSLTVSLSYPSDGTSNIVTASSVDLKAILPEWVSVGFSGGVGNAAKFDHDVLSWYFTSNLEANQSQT

[3] = target: T3, E-selectin (ES-Rg) (Homo sapiens) (UniProt P16581); details: 2'-NH2 all C and U; <5% bound, 4 C; purified recombinant protein; protein details: human IgG1 Fc fusion (provided by A. Varki); label: 32P
T3 sequence: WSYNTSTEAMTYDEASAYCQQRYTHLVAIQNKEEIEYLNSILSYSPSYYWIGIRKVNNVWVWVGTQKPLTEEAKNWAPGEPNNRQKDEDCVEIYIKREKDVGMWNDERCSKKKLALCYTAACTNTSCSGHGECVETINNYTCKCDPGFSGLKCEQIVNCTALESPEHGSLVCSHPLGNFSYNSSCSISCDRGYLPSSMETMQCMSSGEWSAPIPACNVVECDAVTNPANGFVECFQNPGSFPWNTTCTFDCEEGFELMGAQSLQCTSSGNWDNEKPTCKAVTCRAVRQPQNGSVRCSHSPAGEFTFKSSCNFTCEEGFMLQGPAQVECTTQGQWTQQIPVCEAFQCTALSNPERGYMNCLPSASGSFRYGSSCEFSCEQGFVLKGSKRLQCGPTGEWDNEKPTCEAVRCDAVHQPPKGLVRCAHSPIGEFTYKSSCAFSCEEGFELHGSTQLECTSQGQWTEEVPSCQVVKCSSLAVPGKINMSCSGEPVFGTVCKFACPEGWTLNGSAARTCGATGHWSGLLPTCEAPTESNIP

[4] = target: T4, L-selectin (LS-Rg) (Homo sapiens) (UniProt P14151); details: purified recombinant protein, protein details: human IgG2 Fc fusion (provided by A. Varki), label: 32P
T4 sequence: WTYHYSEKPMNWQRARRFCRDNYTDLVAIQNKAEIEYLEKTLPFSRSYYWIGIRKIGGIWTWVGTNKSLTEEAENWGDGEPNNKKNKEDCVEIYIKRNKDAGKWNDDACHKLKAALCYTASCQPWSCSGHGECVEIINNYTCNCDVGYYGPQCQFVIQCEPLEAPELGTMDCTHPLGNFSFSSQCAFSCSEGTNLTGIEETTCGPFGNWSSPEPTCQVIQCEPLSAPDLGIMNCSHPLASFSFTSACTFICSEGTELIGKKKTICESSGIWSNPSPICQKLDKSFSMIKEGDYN

[5] = <1% binding at 700 nM, room temp, single-stranded DNA
[6] = <3% binding at 1.4 µM, room temp, protein details: E Y Laboratories, single-stranded DNA
[7] = 2'-NH2 all C and U, <5% bound at 1 uM WGA, protein details: free lectin, E Y Laboratories, label: 32P
[8] = 2'-NH2 on all C and U, <5% binding at highest protein, 4 C, HSMC

Row | Sequence | Kd (CD22beta (CD22beta-Rg); [5]) | Kd [1, 6] | Kd (CD22beta (CD22beta-Rg); [8]) | also measured
1 | GGGAAAAGCGAAUCAUACACAAGACAAACCUGCAGUCGCGCGGUGAAACCUAGGGUUGCAACGGUACAUCGCUGUGCUCCGCCAGAGACCAACCGAGAA [6.20] | – | – | – | Kd ([1]; 2'-NH2 all C and U, <5% bound at 1 uM WGA, printed as 6.2, SEQ 27, protein details: free lectin, E Y Laboratories, label: 32P): > 20 µM
2 | CTACCTACGATCTGACTAGCGCAACGTGGCCCCGTTTAGCTCATTTGACCGTTCCATCCGGCTTACTCTCATGTAGTTCC [122] | > 100 µM | > 100 µM | – | –
3 | GGGAAAAGCGAAUCAUACACAAGACCGGGGAUGGUGAGUCGGGCAGUGUGACCGAACUGGUGCCCGCUGAGAGCUCCGCCAGAGACCAACCGAGAA [6.6] | – | – | – | Kd [1, 7]: > 20 µM
4 | GGGAAAAGCGAAUCAUACACAAGACGGCUGUGUGGUGUUGGAGCGUCAUAGUAGGAGUCGUCACGAACCAAGGCGCUCCGCCAGAGACCAACCGAGAA [11.24] | – | – | – | Kd [2]: > 20 µM
5 | GGGAGGACGAUGCGGCGCGUAUGUGUGAAAGCGUGUGCACGGAGGCGUCUACAAUCAGACGACUCGCCCGA [F13.32] | – | – | > 20 µM | Kd [3]: > 20 µM
6 | GGGAAAAGCGAAUCAUACACAAGAGCCUAGGGAUGCAACGGCGAAUGGAUAGCGAUGUCGUGGACAGCCAGGUGCUCCGCCAGAGACCAACCGAGAA [6.16 (WGA)] | – | – | – | Kd [1, 7]: > 20 µM
7 | GGGAAAAGCGAAUCAUACACAAGAGUGGACUGGAAUCUUCGAGGACAGGAACGUUCCUAGGGAUGCAACGGACGCUCCGCCAGAGACCAACCGAGAA [6.34] | – | – | – | Kd [1, 7]: > 20 µM
8 | CTACCTACGATCTGACTAGCTGGCGGTACGGGCCGTGCACCCACTTACCTGGGAAGTGAGCTTACTCTCATGTAGTTCC [196] | > 100 µM | > 100 µM | – | –
9 | CTACCTACGATCTGACTAGCTGCACACCTGAGGGTTACAAGGCGCTAGACGTAACCTCTCGCTTACTCTCATGTAGTTCC [230] | > 100 µM | > 100 µM | – | –
10 | GGGAGGACGAUGCGGUAACAACAAUCAAGGCGGGUUCACCGCCCCAGUAUGAGUGCAGACGACUCGCCCGA [F14.20] | – | – | > 20 µM | –
11 | CTACCTACGATCTGACTAGCAGCGTTGTACGGGGTTACACACAACGATTTAGATGCTCTGCTTACTCTCATGTAGTTCC [206] | > 100 µM | > 100 µM | – | –
12 | GGGAGGACGAUGCGGAAACCUUGAUGUGUGAUAGAGCAUCCCCCAGGCGACGUACCAGACGACUCGCCCGA [F14.9] | – | – | > 20 µM | Kd [3]: > 20 µM
13 | CTACCTACGATCTGACTAGCCACGACAGAGAACAAGGCGTTAGACGTTATCCGACCACGGCTTACTCTCATGTAGTTCC [233] | > 100 µM | > 100 µM | – | Kd ([4]; room temp, 380 pM at 37 C, single-stranded DNA): 0.11 µM
14 | GGGAGGACGAUGCGGAAAGUUAUGAGUCCGUAUAUCAAGGUCGACAUGUGUGAAUCAGACGACUCGCCCGA [F13.48] | – | – | > 20 µM | Kd [3]: > 20 µM
15 | GGGAAAAGCGAAUCAUACACAAGAGUGUACCAAUGGAGGCAAUGCUGCGGGAAUGGAGGCCUAGGGAUGCAACGCUCCGCCAGAGACCAACCGAGAA [6.35] | – | – | – | Kd [1, 7]: > 20 µM
16 | GGGAGGACGAUGCGGCGGCCCUUAUCGGAGGUCUGCGCCACUAAUUACAUCCACCAGACGACUCGCCCGA [F13.59] | – | – | > 20 µM | Kd ([4]; 2'-NH2 all C and U, <5% bound at highest concentration, 4 C and room temp): > 20 µM; Kd [3]: > 20 µM

Row | Sequence | Kd (CD22beta (CD22beta-Rg); [5]) | Kd [1, 6] | Kd (CD22beta (CD22beta-Rg); [8]) | also measured
17 | GGGAAAAGCGAAUCAUACACAAGAACACUAACCAGGUCUCUGAACGCGGGACGGAGGUGUGGGCGAGGUGGAAGCUCCGCCAGAGACCAACCGAGAA [6.11] | – | – | – | Kd [1, 7]: > 20 µM
18 | CTACCTACGATCTGACTAGCCATCAAGGACTTTGCCCGAAACCCTAGGTTCACGTGTGGGGCTTACTCTCATGTAGTTCC [181] | > 100 µM | > 100 µM | – | –
19 | GGGAGGACGAUGCGGUUGAGAUGUGUGAGUACAAGCUCAAAAUCCCGUUGGAGGCAGACGACUCGCCCGA [F14.21] | – | – | > 20 µM | –
20 | GGGAGGACGAUGCGGUAACAUAAAGUAGCGCGUCUGUGAGAGGAAGUGCCUGGAUCAGACGACUCGCCCGA [F13.57] | – | – | > 20 µM | –
21 | GGGAGGACGAUGCGGUGUCUCUCCUGACUUUUAUUCUUAGUUCGAGCUGUCCUGGCAGACGACUCGCCCGA [F13.55] | – | – | > 20 µM | –
22 | GGGAGGACGAUGCGGGAUGUAAAUGACAAAUGAACCUCGAAAGAUUGCACACUCCAGACGACUCGCCCGA [F13.42] | – | – | > 20 µM | –
23 | GGGAAAAGCGAAUCAUACACAAGAGAGAAUGAGCAUGGCCGGGGCAGGAAGUGGGUGGCAACGGAGGCCAGCUCCGCCAGAGACCAACCGAGAA [11.23] | – | – | – | Kd [1, 7]: > 20 µM
24 | CTACCTACGATCTGACTAGCCAAGGTAACCAGTACAAGGTGCTAAACGTAATGGCTTCGGCTTACTCTCATGTAGTTCC [201] | > 100 µM | > 100 µM | – | –
25 | GGGAAAAGCGAAUCAUACACAAGACCCAACGUGUCAUCGCGAGCUGGCGGAGAGUUCAUGAGGGUUACGGGUGCUCCGCCAGAGACCAACCGAGAA [11.33] | – | – | – | Kd [1, 7]: > 20 µM
26 | CTACCTACGATCTGACTAGCCATTCACCATGGCCCCTTCCTACGTATGTTCTGCGGGTGGCTTACTCTCATGTAGTTCC [174] | > 100 µM | > 100 µM | – | –
27 | CTACCTACGATCTGACTAGCGGAACACGTGAGGTTTACAAGGCACTCGACGTAAACACTTGCTTACTCTCATGTAGTTCC [204] | > 100 µM | > 100 µM | – | –
28 | GGGAGGACGAUGCGGUCCCAGAGUCCCGUGAUGCGAAGAAUCCAUUAGUACCAGACAGACGACUCGCCCGA [F14.53] | – | – | > 20 µM | –
29 | CTACCTACGATCTGACTAGCCGGACATGAGCGTTACAAGGTGCTAAACGTAACGTACTTGCTTACTCTCATGTAGTTCC [227] | > 100 µM | > 100 µM | – | –
30 | CTACCTACGATCTGACTAGCTACACAAGGTGCTAAACGTAGAGCCAGATCGGATCTGAGCGCTTACTCTCATGTAGTTCC [111] | > 100 µM | > 100 µM | – | –
31 | GGGAAAAGCGAAUCAUACACAAGAGUCCGCCCCCAGGGAUGCAACGGGGUGGCUCUAAAAGGCUUGGCUAAGCUCCGCCAGAGACCAACCGAGAA [11.13] | – | – | – | Kd [1, 7]: > 20 µM
